Measurements reported in US20240254066A1, “RESCORCINOLS, METHODS FOR THEIR MANUFACTURE, AND USES THEREOF” (GW Research Limited, priority 2021, published 2024).

System: tonic hind limb extensor convulsions (mouse model of generalised seizure)
Test: mini-MEST (maximal electroshock seizure threshold) test in the mouse
Conditions: diazepam 2.5 mg/kg i.p., test 30 min post dose; current producing tonic hind limb extension in 50% of animals
Method: The efficacy of novel resorcinols 2, 3, 5, 8, 10, 15, 16, 17, 18, 19, 41 45, 46, 53, 56 and 58 were tested in a novel mouse model of generalised seizure, the mini-MEST (maximal electroshock seizure threshold) test, which uses lower n numbers than typically used.
The maximal electroshock seizure threshold (MEST) test is widely utilized preclinically to evaluate pro- or anti-convulsant properties of test compounds (Loscher et al., 1991).
In the MEST test the ability of a drug to alter the seizure threshold current required to induce hind limb tonic extensor convulsions is measured according to an “up and down” method of shock titration (Kimball et al., 1957). An increase in seizure threshold is indicative of anti-convulsant effect.
The ability of a test compound to alter the stimulus intensity, expressed as current (mA), required to induce the presence of tonic hind limb extensor convulsions, is assessed in the MEST.
Naïve mice were acclimatised to the procedure room in their home cages for up to 7 days, with food and water available ad libitum. […]
Test compound effects were also calculated as percentage change in CC50 from the vehicle control group.
Significant difference between drug-treated animals and controls were assessed according to Litchfield and Wilcoxon (1949).

CN1C(=O)CN=C(c2ccccc2)c2cc(Cl)ccc21 [Diazepam, diazepam, reference compound]
CC50 +/− SEM: 85.0-128.0 mA
